This is one part of the list.
Tests used:
Experiment in all cases: log2 fold change, soluble protein after heating vs DMSO (PISA); higher = thermal stabilisation; K562 cells, 10 uM, 30 min; active = over 0.2 and 3.5 SD of the protein, either way, in both replicates (recomputed)
[1] = compound: CC[C@@H]1C(=O)N(C)c2cnc(Nc3ccc(C(=O)NC4CCN(C)CC4)cc3OC)nc2N1C1CCCC1
Outline: (§1)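 Thermal stability values are relative to control samples and come from duplicates. They are expressed as log2 fold changes. For measurement, K562 cells (2×10^6 cells/mL) received 10 μM compound for 30 min, and aliquots were heated for 3 min over 48°C-58°C, pooled, and extracted at 4°C in PBS with 0.5% NP-40. Soluble protein, the supernatant after 21,000xg for 90 min, was quantified by TMTpro 16plex LC-MS/MS with equalised channel sums.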

By UniProt entry, the sequences of proteins in these tests, tags left out. Where a name states a change or a piece, a line headed by the entry shows the natural chain unless it says otherwise.
UniProt Q9HD42: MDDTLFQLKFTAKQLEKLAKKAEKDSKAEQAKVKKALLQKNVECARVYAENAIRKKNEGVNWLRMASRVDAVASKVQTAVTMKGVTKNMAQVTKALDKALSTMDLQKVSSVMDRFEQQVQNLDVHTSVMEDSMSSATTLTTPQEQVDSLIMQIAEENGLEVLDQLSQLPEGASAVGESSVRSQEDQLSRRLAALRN
UniProt Q8TAP6: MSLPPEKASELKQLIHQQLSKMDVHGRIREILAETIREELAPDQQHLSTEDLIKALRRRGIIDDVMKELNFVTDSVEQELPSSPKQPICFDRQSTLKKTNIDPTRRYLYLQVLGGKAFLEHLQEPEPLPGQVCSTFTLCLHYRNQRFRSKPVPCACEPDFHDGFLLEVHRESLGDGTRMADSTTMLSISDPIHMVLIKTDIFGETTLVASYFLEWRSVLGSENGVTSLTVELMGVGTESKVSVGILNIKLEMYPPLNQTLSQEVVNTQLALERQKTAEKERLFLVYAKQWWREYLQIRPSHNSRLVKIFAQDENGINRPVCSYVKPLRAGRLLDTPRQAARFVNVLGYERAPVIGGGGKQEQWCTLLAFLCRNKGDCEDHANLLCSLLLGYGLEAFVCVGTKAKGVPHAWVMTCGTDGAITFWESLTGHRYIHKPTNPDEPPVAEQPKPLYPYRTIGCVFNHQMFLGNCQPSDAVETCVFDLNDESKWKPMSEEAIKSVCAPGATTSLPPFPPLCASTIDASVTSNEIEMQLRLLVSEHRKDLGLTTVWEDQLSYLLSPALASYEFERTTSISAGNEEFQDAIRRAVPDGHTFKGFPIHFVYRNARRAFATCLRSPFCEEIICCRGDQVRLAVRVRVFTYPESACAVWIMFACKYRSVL
UniProt P08603, whole entry, looked up: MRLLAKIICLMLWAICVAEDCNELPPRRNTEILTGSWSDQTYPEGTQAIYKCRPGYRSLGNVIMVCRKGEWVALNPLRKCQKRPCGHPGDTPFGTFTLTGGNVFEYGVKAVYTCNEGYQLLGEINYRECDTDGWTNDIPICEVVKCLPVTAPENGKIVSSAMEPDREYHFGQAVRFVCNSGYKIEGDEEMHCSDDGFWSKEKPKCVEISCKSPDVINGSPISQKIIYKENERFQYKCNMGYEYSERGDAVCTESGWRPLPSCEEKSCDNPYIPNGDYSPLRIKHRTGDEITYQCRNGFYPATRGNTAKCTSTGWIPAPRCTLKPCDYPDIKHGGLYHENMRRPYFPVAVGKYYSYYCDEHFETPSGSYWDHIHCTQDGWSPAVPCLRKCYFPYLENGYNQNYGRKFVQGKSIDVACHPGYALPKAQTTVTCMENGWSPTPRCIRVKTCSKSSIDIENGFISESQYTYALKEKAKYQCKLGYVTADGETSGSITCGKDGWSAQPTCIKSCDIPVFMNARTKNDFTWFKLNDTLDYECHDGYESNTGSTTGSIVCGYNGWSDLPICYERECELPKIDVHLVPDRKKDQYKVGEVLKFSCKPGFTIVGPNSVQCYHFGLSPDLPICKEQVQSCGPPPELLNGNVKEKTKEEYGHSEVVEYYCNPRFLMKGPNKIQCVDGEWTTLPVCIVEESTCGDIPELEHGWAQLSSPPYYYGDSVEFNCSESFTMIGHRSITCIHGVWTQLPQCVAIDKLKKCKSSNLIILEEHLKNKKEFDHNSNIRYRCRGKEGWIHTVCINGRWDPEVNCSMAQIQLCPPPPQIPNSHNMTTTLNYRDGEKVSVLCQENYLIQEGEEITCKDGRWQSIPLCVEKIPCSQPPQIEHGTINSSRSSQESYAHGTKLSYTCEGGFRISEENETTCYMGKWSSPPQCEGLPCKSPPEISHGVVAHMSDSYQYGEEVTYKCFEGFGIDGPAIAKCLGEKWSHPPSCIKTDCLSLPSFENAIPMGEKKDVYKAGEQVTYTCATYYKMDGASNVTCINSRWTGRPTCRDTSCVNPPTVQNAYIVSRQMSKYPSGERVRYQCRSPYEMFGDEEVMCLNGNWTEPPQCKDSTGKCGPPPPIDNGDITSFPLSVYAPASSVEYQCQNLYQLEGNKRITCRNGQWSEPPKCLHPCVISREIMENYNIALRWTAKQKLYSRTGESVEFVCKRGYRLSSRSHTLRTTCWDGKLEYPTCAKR
UniProt Q9UQN3, whole entry, looked up: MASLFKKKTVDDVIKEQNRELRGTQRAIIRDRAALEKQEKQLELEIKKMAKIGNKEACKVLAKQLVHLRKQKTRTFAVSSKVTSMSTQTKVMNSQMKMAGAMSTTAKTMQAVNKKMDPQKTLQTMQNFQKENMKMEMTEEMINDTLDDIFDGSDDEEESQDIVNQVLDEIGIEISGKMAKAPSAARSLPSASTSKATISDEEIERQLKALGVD
UniProt Q9Y259: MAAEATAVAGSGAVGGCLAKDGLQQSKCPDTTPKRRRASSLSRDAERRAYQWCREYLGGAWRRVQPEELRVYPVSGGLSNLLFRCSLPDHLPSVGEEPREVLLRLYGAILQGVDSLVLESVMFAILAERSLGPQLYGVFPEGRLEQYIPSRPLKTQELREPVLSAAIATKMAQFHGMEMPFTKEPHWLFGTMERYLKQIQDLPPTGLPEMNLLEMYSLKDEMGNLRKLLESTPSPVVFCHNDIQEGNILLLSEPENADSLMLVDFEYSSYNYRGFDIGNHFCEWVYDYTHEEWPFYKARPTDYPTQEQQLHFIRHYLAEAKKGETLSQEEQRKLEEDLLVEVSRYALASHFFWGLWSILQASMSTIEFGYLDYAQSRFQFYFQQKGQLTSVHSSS
UniProt Q9H3Q1: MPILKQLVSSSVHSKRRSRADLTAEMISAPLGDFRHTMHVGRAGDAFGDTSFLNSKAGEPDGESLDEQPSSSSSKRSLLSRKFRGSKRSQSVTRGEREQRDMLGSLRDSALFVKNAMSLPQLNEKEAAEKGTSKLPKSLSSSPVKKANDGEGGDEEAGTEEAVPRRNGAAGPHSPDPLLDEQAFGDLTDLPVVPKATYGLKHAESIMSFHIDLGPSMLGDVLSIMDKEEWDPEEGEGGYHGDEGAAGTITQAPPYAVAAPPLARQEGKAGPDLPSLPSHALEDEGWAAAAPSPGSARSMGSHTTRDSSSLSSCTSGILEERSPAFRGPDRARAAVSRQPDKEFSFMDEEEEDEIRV
UniProt Q6ZMG9: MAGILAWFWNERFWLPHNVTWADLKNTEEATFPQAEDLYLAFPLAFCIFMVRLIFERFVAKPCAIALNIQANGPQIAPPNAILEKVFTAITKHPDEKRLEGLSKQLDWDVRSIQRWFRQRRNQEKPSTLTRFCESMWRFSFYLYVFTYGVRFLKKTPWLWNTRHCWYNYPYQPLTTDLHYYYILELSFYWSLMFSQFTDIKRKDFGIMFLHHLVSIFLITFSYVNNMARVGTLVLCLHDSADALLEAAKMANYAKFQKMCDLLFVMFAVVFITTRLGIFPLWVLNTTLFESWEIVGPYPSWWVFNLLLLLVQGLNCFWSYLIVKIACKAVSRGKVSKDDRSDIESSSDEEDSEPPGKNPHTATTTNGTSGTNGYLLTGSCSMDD
UniProt Q9Y232: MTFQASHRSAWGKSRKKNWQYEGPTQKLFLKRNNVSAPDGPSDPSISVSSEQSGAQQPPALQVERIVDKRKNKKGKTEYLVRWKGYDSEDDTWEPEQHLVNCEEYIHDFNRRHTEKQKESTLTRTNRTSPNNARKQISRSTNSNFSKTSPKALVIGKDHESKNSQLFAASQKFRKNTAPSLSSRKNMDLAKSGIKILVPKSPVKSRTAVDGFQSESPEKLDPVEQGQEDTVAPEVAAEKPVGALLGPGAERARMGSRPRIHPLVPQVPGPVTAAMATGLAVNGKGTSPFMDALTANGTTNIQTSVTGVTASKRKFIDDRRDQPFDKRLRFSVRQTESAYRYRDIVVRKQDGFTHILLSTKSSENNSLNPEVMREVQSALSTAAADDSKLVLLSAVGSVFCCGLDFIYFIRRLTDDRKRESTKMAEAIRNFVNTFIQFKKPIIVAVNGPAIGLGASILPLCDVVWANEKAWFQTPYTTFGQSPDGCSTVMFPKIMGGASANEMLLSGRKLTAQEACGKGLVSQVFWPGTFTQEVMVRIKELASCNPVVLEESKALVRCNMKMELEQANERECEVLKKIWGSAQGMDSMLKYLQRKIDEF

volasertib = compound: CC[C@@H]1C(=O)N(C)c2cnc(Nc3ccc(C(=O)N[C@H]4CC[C@H](N5CCN(CC6CC6)CC5)CC4)cc3OC)nc2N1C(C)C [volasertib]
Outline: as §1

[2] = compound: CC[C@H](C)N1C=C(C2=C(C=C(C=C21)C3=CN=C(C=C3)N4CCNCC4)C(=O)NCC5=C(C=C(NC5=O)C)C)C
Outline: as §1

epoxomicin = compound: CC[C@H](C)[C@@H](C(=O)N[C@@H]([C@@H](C)O)C(=O)N[C@@H](CC(C)C)C(=O)[C@]1(CO1)C)NC(=O)[C@H]([C@@H](C)CC)N(C)C(=O)C [epoxomicin]
Outline: as §1

[3] = compound: CCn1c(C(=O)N(C2CC2)C2CC2)cc2c3c(ncn3C)c(Nc3cc(C)n(C)n3)nc21
Outline: as §1

[4] = compound: CCn1cc(-c2ccnc3[nH]c(-c4cccc(CN(C)C)c4)cc23)c(-c2ccc(NC(=O)N(C)C)cc2)n1
Outline: as §1

[5] = compound: CN(C)CC(=O)Nc1ccc2[nH]c(=O)c3ccccc3c2c1
Outline: as §1

rosiglitazone = compound: CN(CCOC1=CC=C(C=C1)C[C@H]2C(=O)NC(=O)S2)C3=CC=CC=N3 (racemic) [rosiglitazone]
Outline: as §1

[6] = compound: CN1C2=C(C3=C1C(=O)N(N=C3)CC4=CC(=CC=C4)N)SC(=C2)S(=O)C
Outline: as §1

[7] = compound: CN1CCC(CNc2ccc3ncc(-c4cccc(OC(F)(F)F)c4)n3n2)CC1
Outline: as §1

saracatinib = compound: CN1CCN(CCOc2cc(OC3CCOCC3)c3c(Nc4c(Cl)ccc5c4OCO5)ncnc3c2)CC1 [saracatinib]
Outline: as §1

sotrastaurin = compound: CN1CCN(c2nc(C3=C(c4c[nH]c5ccccc45)C(=O)NC3=O)c3ccccc3n2)CC1 [sotrastaurin]
Outline: as §1

alvocidib = compound: CN1CC[C@H](c2c(O)cc(O)c3c(=O)cc(-c4ccccc4Cl)oc23)[C@H](O)C1 [alvocidib]
Outline: as §1

Tubastatin A = compound: CN1CCc2c(c3ccccc3n2Cc2ccc(C(=O)NO)cc2)C1 [Tubastatin A]
Outline: as §1

[8] = compound: CNC(=O)C1=CC=CC=C1NC2=NC(=NC=C2Cl)NC3=C(C=C(C=C3)N4CCOCC4)OC
Outline: as §1

defactinib = compound: CNC(=O)c1ccc(Nc2ncc(C(F)(F)F)c(NCc3nccnc3N(C)S(C)(=O)=O)n2)cc1 [defactinib]
Outline: as §1

rucaparib = compound: CNCc1ccc(-c2[nH]c3cc(F)cc4c3c2CCNC4=O)cc1 [rucaparib]
Outline: as §1

[9] = compound: CNc1nc(-c2ccc3c(N)n[nH]c3c2)cc(N2C[C@@H](C(=O)NC3CCCCC3)CC[C@H]2C)n1
Outline: as §1

encorafenib = compound: COC(=O)N[C@@H](C)CNc1nccc(-c2cn(C(C)C)nc2-c2cc(Cl)cc(NS(C)(=O)=O)c2F)n1 [encorafenib]
Outline: as §1

[10] = compound: COC(=O)[C@H](CCSC)NC(=O)C1=C(C=C(C=C1)NC[C@H](CS)N)C2=CC=CC=C2
Outline: as §1

Measured: log2 fold change

CHMP1A (UniProt Q9HD42)
inactive: [1] -0.184 | volasertib -0.084 | [2] 0.009 | epoxomicin 0.03 | [3] 0.048 | [4] -0.005 | [5] -0.024 | rosiglitazone -0.02 | [6] -0.08 | [7] -0.134 | saracatinib 0.031 | sotrastaurin 0.005 | alvocidib -0.031 | Tubastatin A -0.024 | [8] -0.023 | defactinib 0.002 | rucaparib -0.014 | [9] -0.013 | encorafenib -0.037 | [10] 0.054

CEP76 (UniProt Q8TAP6)
inactive: [1] 0.043 | volasertib -0.04 | [2] -0.019 | epoxomicin -0.031 | [3] 0.003 | [4] -0.044 | [5] 0.035 | rosiglitazone 0.003 | [6] 0.005 | [7] 0.019 | saracatinib 0.013 | sotrastaurin 0.06 | alvocidib 0.084 | Tubastatin A 0.019 | [8] -0.011 | defactinib -0.092 | rucaparib -0.048 | [9] -0.038 | encorafenib -0.012 | [10] -0.005

CFH (UniProt P08603)
inactive: [1] 0.059 | volasertib 0.023 | [2] -0.113 | epoxomicin -0.054 | [3] 0.115 | [4] 0.103 | [5] -0.066 | rosiglitazone -0.075 | [6] -0.028 | [7] 0.146 | saracatinib 0.049 | sotrastaurin 0.002 | alvocidib 0.028 | Tubastatin A 0.05 | [8] -0.038 | defactinib -0.016 | rucaparib -0.016 | [9] 0 | encorafenib -0.012 | [10] 0.067

CHMP2B (UniProt Q9UQN3)
inactive: [1] -0.19 | volasertib -0.102 | [2] -0.022 | epoxomicin 0.034 | [3] 0.057 | [4] -0.003 | [5] -0.03 | rosiglitazone -0.011 | [6] -0.013 | [7] -0.082 | saracatinib 0.042 | sotrastaurin -0.025 | alvocidib -0.046 | Tubastatin A 0.011 | [8] -0.001 | defactinib -0.012 | rucaparib -0.025 | [9] -0.03 | encorafenib 0.044 | [10] 0.023

CHKB (UniProt Q9Y259)
inactive: [1] 0.022 | volasertib 0.066 | [2] 0.082 | epoxomicin 0.004 | [3] 0.032 | [4] -0.072 | [5] 0.02 | rosiglitazone -0.075 | [6] 0.014 | [7] 0.255 | saracatinib 0.066 | sotrastaurin 0.031 | alvocidib -0.017 | Tubastatin A -0.001 | [8] -0.048 | defactinib -0.09 | rucaparib -0.023 | [9] -0.032 | encorafenib 0.001 | [10] 0.021

CDC42EP4 (UniProt Q9H3Q1)
inactive: [1] 0.047 | volasertib 0 | [2] 0.015 | epoxomicin -0.019 | [3] -0.013 | [4] -0.052 | [5] -0.008 | rosiglitazone 0.019 | [6] -0.027 | [7] -0.053 | saracatinib 0.108 | sotrastaurin -0.057 | alvocidib -0.001 | Tubastatin A -0.066 | [8] -0.045 | defactinib -0.091 | rucaparib 0.109 | [9] -0.216 | encorafenib 0.042 | [10] 0.056

CERS6 isoform 2 (UniProt Q6ZMG9)
inactive: [1] 0.007 | volasertib 0.07 | [2] 0.003 | epoxomicin -0.034 | [3] 0.066 | [4] -0.005 | [5] -0.021 | rosiglitazone -0.004 | [6] 0.021 | [7] -0.013 | saracatinib 0.033 | sotrastaurin 0.07 | alvocidib 0.053 | Tubastatin A -0.04 | [8] 0.004 | defactinib -0.004 | rucaparib -0.087 | [9] -0.058 | encorafenib 0.069 | [10] 0.007

CDYL (UniProt Q9Y232)
inactive: [1] -0.085 | volasertib -0.021 | [2] 0.015 | epoxomicin -0.004 | [3] -0.006 | [4] 0.053 | [5] -0.06 | rosiglitazone 0 | [6] -0.057 | [7] 0.063 | saracatinib -0.007 | sotrastaurin 0.014 | alvocidib -0.028 | Tubastatin A 0.034 | [8] -0.007 | defactinib -0.075 | rucaparib -0.067 | [9] 0.022 | encorafenib 0.015 | [10] 0.056

From the supplement of paper PMC10849652
